Laboratory results from patent publication US12065471B2, “B*44 restricted peptides for use in immunotherapy against cancers and related methods” (Immatics Biotechnologies GmbH, priority 2018, dated 2024).

Key:
[1] = tested on: HLA molecules of primary tumor and normal tissue samples; experiment: Identification and quantitation of tumor associated peptides presented on the cell surface (HLA immunoprecipitation, label-free LC-MS); design: species or system human; settings: for Peptide Presentation on cancer entities: cancer entities on which the peptide was found presented (HLA immunoprecipitation, LC-MS), abbreviations in table footnotes; for over-presentation of peptide in cancer tissues (median MS signal intensities, detection frequency): HLA-B*44 positive normal (N=124) vs tumor samples (N=159), FIGS. 1A-1M
[2] = tested on: source genes (mRNA) in tumor and normal tissues; experiment: Expression profiling of genes encoding the peptides (RNAseq); design: species or system human; settings: for Gene Expression in tumor samples: over-expressed (+): tumor types in which the peptide's source gene is over-expressed compared to a panel of normal tissues (RNAseq); for Gene Expression in tumor samples: very highly over-expressed (+++): tumor types in which the peptide's source gene is very highly over-expressed compared to a panel of normal tissues (RNAseq); for Gene Expression in tumor samples: highly over-expressed (++): tumor types in which the peptide's source gene is highly over-expressed compared to a panel of normal tissues (RNAseq)

Row | Substance | Peptide Presentation on cancer entities [1] | Gene Expression in tumor samples: over-expressed (+) [2] | Gene Expression in tumor samples: very highly over-expressed (+++) [2] | Gene Expression in tumor samples: highly over-expressed (++) [2] | over-presentation of peptide in cancer tissues (median MS signal intensities, detection frequency) [1]
1 | 2: peptide found in KLK2 (gene looked up) (EEFLRPRSL; listed as Homo sapiens) [compound 2] | PRCA | CLL | PRCA | – | –
2 | 3: peptide found in TRPM8 (gene looked up) (DEIFTNDRRW; listed as Homo sapiens) [compound 3] | PRCA | UEC | PRCA | GBM, MEL, SCLC | –
3 | 6: peptide found in ACP3 (gene looked up) (AELVGPVIPQDW; listed as Homo sapiens) [compound 6] | PRCA | – | PRCA | – | –
4 | 7: peptide found in TRPM8 (gene looked up) (SESDLVNFI; listed as Homo sapiens) [compound 7] | PRCA | – | PRCA | GBM, MEL | –
5 | 10: peptide found in CLDN6 (gene looked up) (SEYPTKNYV; listed as Homo sapiens) [compound 10] | NSCLCadeno | HCC, HNSCC, NSCLCsquam, OSCAR, PACA, UEC | – | CCC, GC, NSCLCadeno | –
6 | 11: peptide found in TRPM8 (gene looked up) (EENIVAIGI; listed as Homo sapiens) [compound 11] | PRCA | MEL | PRCA | GBM | –
7 | 13: peptide found in SLC6A3 (gene looked up) (VEAQDRETW; listed as Homo sapiens) [compound 13] | RCC | NSCLCadeno, NSCLCsquam, SCLC | RCC | – | –
8 | 14: peptide found in MMP12 (gene looked up) (EMPGGPVW; listed as Homo sapiens) [compound 14] | CRC, UBC | HCC, RCC | CRC, HNSCC, NSCLCother, NSCLCsquam, SCLC | CCC, GBC, GC, MEL, NHL, NSCLCadeno, OC, OSCAR, PACA, UBC, UEC | –
9 | 22: peptide found in FLT3 (gene looked up) (TEEITEGVW; listed as Homo sapiens) [compound 22] | AML, CLL, HNSCC, NSCLCadeno | – | AML | – | –
10 | 23: peptide found in MMP1 (gene looked up) (REYNLHRVA; listed as Homo sapiens) [compound 23] | HNSCC | CRC, GC, MEL, NSCLCadeno, PACA | – | HNSCC, NSCLCsquam, OSCAR, UBC | –
11 | 30: peptide found in FLT3 (gene looked up) (EEFCFSVRF; listed as Homo sapiens) [compound 30] | AML | – | – | AML | –
12 | 31: peptide found in ESR1 (gene looked up) (MESAKETRY; listed as Homo sapiens) [compound 31] | BRCA, UEC | – | – | BRCA, OC, UEC | –
13 | 32: peptide found in FLT3 (gene looked up) (REYEYDLKW; listed as Homo sapiens) [compound 32] | AML | – | – | AML | –
14 | 33: peptide found in FLT3 (gene looked up) (IEYENQKRL; listed as Homo sapiens) [compound 33] | AML | – | – | AML | –
15 | 36: peptide found in TYR (gene looked up) (LEQASRIWSW; listed as Homo sapiens) [compound 36] | MEL | – | – | MEL | –
16 | 38: peptide found in MMP1 (gene looked up) (DEVRFFKGNKY; listed as Homo sapiens) [compound 38] | OSCAR | CRC, GC, NSCLCadeno, PACA, UBC | – | HNSCC, NSCLCsquam, OSCAR | –
17 | 41: peptide found in MMP1 (gene looked up) (EENTGKTYF; listed as Homo sapiens) [compound 41] | HNSCC, OSCAR | CRC, GC, NSCLCadeno, PACA, UBC | – | HNSCC, NSCLCsquam, OSCAR | –
18 | 42: peptide found in MMP1 (gene looked up) (SEENTGKTYF; listed as Homo sapiens) [compound 42] | HNSCC, NSCLCsquam, OSCAR | CRC, GC, NSCLCadeno, PACA, UBC | – | HNSCC, NSCLCsquam, OSCAR | –
19 | 89: peptide found in CYP4Z1 (gene looked up) (KEFYPVKEF; listed as Homo sapiens) [compound 89] | – | – | BRCA | – | –
20 | 114: peptide found in LOXL4 (gene looked up) (VEVNGVPRW; listed as Homo sapiens) [compound 114] | – | CCC, OSCAR | – | MEL | –

Row | Substance | Peptide Presentation on cancer entities [1] | Gene Expression in tumor samples: over-expressed (+) [2] | Gene Expression in tumor samples: very highly over-expressed (+++) [2] | Gene Expression in tumor samples: highly over-expressed (++) [2] | over-presentation of peptide in cancer tissues (median MS signal intensities, detection frequency) [1]
21 | 117: peptide found in LOXL4 (gene looked up) (SEVPVDSHY; listed as Homo sapiens) [compound 117] | – | CCC | – | MEL | –
22 | 119: peptide found in LOXL4 (gene looked up) (VEVKYEGHW; listed as Homo sapiens) [compound 119] | – | CCC | – | MEL | –
23 | 125: peptide found in LOXL4 (gene looked up) (LEVLHQGQW; listed as Homo sapiens) [compound 125] | – | CCC | – | MEL | –
24 | 150: peptide found in PTPRZ1 (gene looked up) (SEVFHVSEA; listed as Homo sapiens) [compound 150] | – | – | – | GBM | –
25 | 170: peptide found in MMP16 (gene looked up) (REMFVFKDQW; listed as Homo sapiens) [compound 170] | – | BRCA | – | GBM, MEL | –
26 | 173: peptide found in PTPRZ1 (gene looked up) (SEHSLEGQKF; listed as Homo sapiens) [compound 173] | – | – | – | GBM | –
27 | 202: peptide found in GRP (gene looked up) (RELPLVLLA; listed as Homo sapiens) [compound 202] | – | – | – | SCLC | –
28 | 205: peptide found in ADAMTS12 (gene looked up) (MEIEGAGNFL; listed as Homo sapiens) [compound 205] | – | BRCA, CRC, GC, HNSCC, MEL, NSCLCadeno, NSCLCother, NSCLCsquam, OSCAR, PACA, SCLC, UBC | – | CCC, GBC | –
29 | 212: peptide found in SIGLEC15 (gene looked up) (SEASVYLFRF; listed as Homo sapiens) [compound 212] | – | HCC, MEL, NHL, OC, PACA, UEC | – | UBC | –
30 | 214: peptide found in NPFFR2 (gene looked up) (SVNPIIYGF; listed as Homo sapiens) [compound 214] | – | GBC | – | HCC | –
31 | 390: peptide found in RXFP1 (gene looked up) (GEYNKHAQLW; listed as Homo sapiens) [compound 390] | – | UEC | – | – | –
32 | 391: peptide found in RXFP1 (gene looked up) (TESIGAQIY; listed as Homo sapiens) [compound 391] | – | UEC | – | – | –
33 | 392: peptide found in RXFP1 (gene looked up) (TEVSVLLLTF; listed as Homo sapiens) [compound 392] | – | UEC | – | – | –
34 | NEVDGEYRY (listed as Homo sapiens) [SEQ ID NO: 452] | – | – | – | – | over-presentation
35 | QEAKPRATW (listed as Homo sapiens) [SEQ ID NO: 409] | – | – | – | – | over-presentation
36 | QEILHGAVRF (listed as Homo sapiens) [SEQ ID NO: 253] | – | – | – | – | over-presentation
37 | SESKVFQLL (listed as Homo sapiens) [SEQ ID NO: 453] | – | – | – | – | over-presentation
38 | TELEVKIRDW (listed as Homo sapiens) [SEQ ID NO: 196] | – | – | – | – | over-presentation
39 | VEAATVSKW (listed as Homo sapiens) [SEQ ID NO: 225] | – | – | – | – | over-presentation
40 | VEEEISRHY (listed as Homo sapiens) [SEQ ID NO: 283] | – | – | – | – | over-presentation

For some assays here: Expression values are those of the mRNA of the gene that encodes the peptide; a gene is named only where it was looked up.
